{
  "source": "patent US20210317112A1",
  "about": "“HETEROCYCLIC COMPOUNDS AS PESTICIDES” (Bayer Aktiengesellschaft, priority 2017, published 2021)",
  "system": "mustard beetle larvae (Phaedon cochleariae)",
  "experiment": "Phaedon cochleariae spray test",
  "format": "in vivo",
  "details": "application rate 500 g/ha; Chinese cabbage leaf disks; after 7 days",
  "procedure": "Phaedon cochleariae—Spray Test Solvent: 78.0 parts by weight of acetone • • 1.5 parts by weight of dimethylformamide Emulsifier: alkylarylpolyglycol ether\nTo produce a suitable preparation of active compound, 1 part by weight of active compound is mixed with the stated amount of solvents and is diluted with water, containing an emulsifier concentration of 1000 ppm, to the desired concentration. Further test concentrations are prepared by dilution with emulsifier containing water.\nChinese cabbage (Brassica pekinensis) leaf disks are sprayed with a preparation of the active ingredient of the desired concentration. Once dry, the leaf disks are infested with mustard beetle larvae (Phaedon cochleariae).\nAfter 7 days mortality in % is determined. 100% means all beetle larvae have been killed and 0% means none of the beetle larvae have been killed.",
  "note": "Some results were stated once for a whole list of compounds, not compound by compound.",
  "data": [
    {"smiles": "CCc1ncccc1C(=O)Nc1nnc(-c2ccccc2Cl)o1", "note": "[Compound I-5-2]", "values": [
      {"measurement": "mortality in %", "result": 100, "unit": "%"}
    ]}
  ]
}
